Reference: PubChem BioAssay AID2685 (National Center for Advancing Translational Sciences (NCATS), 2010)
The list shows a part of the results. Shown are side measurements of this screen, not its main read-out; they come without a call. Most of these compounds were active or inconclusive in the main read-out, so they are no random draw. Words in brackets tell the shape of the fitted curve; partial curves, single points and poor fits give uncertain potencies.

Test: qHTS Assay for Lipid Storage Modulators in Drosophila S3 Cells;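 on cell number change: cells counted by Cell Tracker Red CMTPX staining in the red channel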
Details: BODIPY lipid droplet fluorescence, 18-24 h; for cell number change: measured here: cell count max response, cells fed with added oleic acid
In short: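 Drosophila S3 cells loaded with oleic acid (400 uM, as added) and compounds at several concentrations; lipid droplets imaged by 488-nm laser-scanning cytometry, 500–530 nm intensity and object ratio to cell channel. Percent activity normalized to 20 uM Triacsin C.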

[1] = measured here: lipid fluorescence (Fed channel) AC50, cells fed with added oleic acid
[2] = measured here: cell number channel AC50, cells fed with added oleic acid

Row | SMILES | AC50 [1] | cell number change | AC50 [2]
1 | CC(=O)N1c2ccc(S(=O)(=O)N3CCC(C(=O)N4CCN(c5ccc(Cl)cc5)CC4)CC3)cc2CC1C (configuration not stated) | 29.1 µM [falling, single point] |  | 
2 | O=C1N=C(N2CCOCC2)S/C1=C\c1ccc(OS(=O)(=O)c2ccccc2)cc1 | 0.13 µM [falling, full curve, poor fit] | -6.56% | 
3 | COc1ccc([C@@H]2CC=C(C(=O)O)CN2S(=O)(=O)c2ccc(Cl)cc2)cc1 | 3.66 µM [rising, partial curve] |  | 
4 | CC(=O)C1=C(O)C(=O)N(c2ccccn2)C1c1ccc(Cl)cc1 (configuration not stated) |  | 31.4% | 
5 | Cc1sc2nc(C)n(/N=C/c3ccc(O)cc3)c(=O)c2c1C | 0.651 µM [rising, single point] |  | 1.64 µM [rising, partial curve]
6 | COC(=O)C1=C(C(=O)c2ccccc2)C(c2ccc(OC)c(OC)c2)Nc2nnnn21 (configuration not stated) | 29.1 µM [rising, single point] | 20.7% | 
7 | O=C(Nc1cccc(C(F)(F)F)c1)C1CCN(S(=O)(=O)c2cnc[nH]2)CC1 | 2.06 µM [rising, partial curve, poor fit] | 2.37% | 
8 | Cc1ccc2[nH]c(-c3ccccc3)c(CN3CCN(C)CC3)c(=O)c2c1 |  | -32.3% | 1.16 µM [falling, full curve, poor fit]
9 | CCCn1nc(C(=O)NCc2ccccn2)c2ccccc2c1=O |  | 16.3% | 0.164 µM [rising, full curve, poor fit]
10 | COc1ccc(C(=O)Nc2oc(-c3ccccc3)c(-c3ccccc3)c2C#N)cc1OC | 4.11 µM [rising, full curve] | 25.8% | 3.66 µM [rising, full curve, poor fit]
11 | COc1ccccc1OCC(=O)OCn1c(SC)nnc(C)c1=O | 0.082 µM [rising, full curve, poor fit] | 18.9% | 
12 | N#Cc1ccccc1NCC(=O)N1CCN(S(=O)(=O)c2ccccc2)CC1 | 29.1 µM [rising, single point] | 12.3% | 
13 | COC(=O)c1ccc(CSc2nnc(CNC(=O)c3ccccc3F)o2)o1 | 6.51 µM [rising, single point] | -11% | 
14 | O=C(CN1C(=O)C2(OCCO2)c2ccccc21)c1ccc(F)cc1 | 0.116 µM [falling, full curve, poor fit] | -50.4% | 
15 | CCOC(=O)NNc1ccc(C(F)(F)F)cn1 | 2.91 µM [falling, single point] | -0.8% | 
16 | Cn1cc([N+](=O)[O-])c(C(=O)Nc2ccc3c(c2)OCCO3)n1 |  | 39.5% | 3.26 µM [rising, full curve]
17 | COc1ccc(NC(=S)NCc2cccs2)cc1OC |  | 11.6% | 
18 | CCOC(=O)c1[nH]cnc1C(=O)N[C@@H](C)c1ccccc1 |  | -30.9% | 3.66 µM [falling, single point]
19 | CCCNS(=O)(=O)c1cc(Cl)ccc1OC | 0.082 µM [falling, full curve, poor fit] | -7.15% | 
20 | Cc1ccc(C(=O)CSc2nc3ccccc3c(=O)[nH]2)cc1 | 6.51 µM [rising, single point] | -15.1% | 

Arranged by SMILES length (low to high): 3 of the compounds above
Row | SMILES | AC50 [1] | cell number change | AC50 [2]
15 | CCOC(=O)NNc1ccc(C(F)(F)F)cn1 | 2.91 µM [falling, single point] | -0.8% | 
20 | Cc1ccc(C(=O)CSc2nc3ccccc3c(=O)[nH]2)cc1 | 6.51 µM [rising, single point] | -15.1% | 
6 | COC(=O)C1=C(C(=O)c2ccccc2)C(c2ccc(OC)c(OC)c2)Nc2nnnn21 (configuration not stated) | 29.1 µM [rising, single point] | 20.7% | 

Further entries follow.

Row | SMILES | AC50 [1] | cell number change | AC50 [2]
21 | Cc1cc(-c2cc(-c3ccc(Cl)cc3)nc(N)c2C#N)co1 |  | -6.03% | 
22 | Cc1ccc(S(=O)(=O)N2CCc3cc4c(cc3C2C)OCCCO4)cc1 (configuration not stated) | 29.1 µM [falling, single point] | 4.72% | 
23 | CC1CCC(C(=O)NC(C(=O)Nc2ccccn2)C(C)C)CC1 (configuration not stated) |  | 11.2% | 
24 | O=C(c1ccc(NS(=O)(=O)c2cccc(F)c2)cc1)N1CCCCC1 | 0.58 µM [rising, single point] | 21.9% | 
25 | Cc1ccccc1C1NC(=S)NC2=C1C(=O)CC(C)(C)C2 (configuration not stated) | 1.84 µM [rising, partial curve] | 18.1% | 0.731 µM [rising, single point]
26 | O=C(NCc1cccc(Cl)c1)C1CCC(=O)N(CCCN2CCCC2=O)C1 (configuration not stated) | 1.46 µM [falling, partial curve] |  | 
27 | COc1cc(CNn2c(C)n[nH]c2=S)cc(Cl)c1OCC(=O)NC(C)(C)C |  | -2.11% | 
28 | N#Cc1c(C#N)c(O)c2ccccc2c1O | 0.411 µM [falling, full curve, poor fit] | 28.8% | 1.84 µM [rising, full curve, poor fit]
29 | Cc1ccc(S(=O)(=O)NC2(C(F)(F)F)NC(=O)N(Cc3ccccc3)C2=O)cc1 (configuration not stated) |  | 6.92% | 
30 | Cc1ccc2[nH]cc(CCNC(=O)Nc3ccccc3)c2c1 | 5.17 µM [rising, full curve] | 75% | 4.11 µM [rising, full curve]
31 | O=C(CN(Cc1ccccc1Cl)C(=O)CNS(=O)(=O)c1ccccc1)NCC1CCCO1 (configuration not stated) |  | 15% | 
32 | NC(=O)CC(NC(=O)Cc1ccc(Br)cc1)c1ccc(NCc2ccc(F)cc2)c([N+](=O)[O-])c1 (configuration not stated) |  | 12.5% | 
33 | CC(=O)c1cnn(-c2nc3c(C)cccc3s2)c1C |  |  | 3.66 µM [rising, single point]
34 | Cc1nn(-c2ccccc2)c(C)c1C(=O)N1CCN(S(=O)(=O)c2ccccc2)CC1 | 0.0259 µM [falling, full curve, poor fit] | -15.2% | 
35 | COc1ccc(CCN2CCCn3c2nc2c3c(=O)n(C)c(=O)n2C)cc1OC | 3.66 µM [rising, full curve] | 4.17% | 
36 | CCc1cc2cc3c(cc2nc1SCC(=O)Nc1c[nH]c(=O)[nH]c1=O)OCO3 | 9.2 µM [rising, partial curve, poor fit] | 39.2% | 20.6 µM [rising, partial curve, poor fit]
37 | Cc1cc(C(=O)CN2C(=O)C(=O)N(Cc3ccco3)C2=O)c(C)n1CCc1ccc(F)cc1 | 29.1 µM [rising, single point] | 31.3% | 29.1 µM [rising, single point]
38 | COc1ccc(NC(=O)C(Cc2ccccc2)n2cccc2)c(OC)c1 (configuration not stated) | 3.26 µM [rising, single point] | 13.5% | 0.164 µM [rising, partial curve, poor fit]
39 | CCCCc1nnc(NC(=O)CN2C(=O)C3CCCCC3C2=O)s1 (configuration not stated) | 1.3 µM [falling, full curve, poor fit] | -27.9% | 
40 | O=C(NN=C1CCCC1)c1ccc(O)cc1O | 29.1 µM [rising, single point] | 8.8% | 

Structural class: those above with a nitro group on carbon
Row | SMILES | AC50 [1] | cell number change | AC50 [2]
16 | Cn1cc([N+](=O)[O-])c(C(=O)Nc2ccc3c(c2)OCCO3)n1 |  | 39.5% | 3.26 µM [rising, full curve]
32 | NC(=O)CC(NC(=O)Cc1ccc(Br)cc1)c1ccc(NCc2ccc(F)cc2)c([N+](=O)[O-])c1 (configuration not stated) |  | 12.5% | 

Going on with the list.

Row | SMILES | AC50 [1] | cell number change | AC50 [2]
41 | Cc1ccc(-c2nnc(SCC(=O)N3CCCC3)o2)cc1C | 29.1 µM [rising, partial curve] | 124% | 10.3 µM [rising, partial curve]
42 | CC(=O)C(Cc1ccccc1)NC(=O)CN(C)Cc1ccccc1Cl (configuration not stated) | 29.1 µM [falling, partial curve, poor fit] | -0.806% | 
43 | Cc1ccc(NC(=O)N2CCN(c3ccccn3)CC2)cc1 | 5.8 µM [rising, single point] | 32.6% | 10.3 µM [rising, single point]
44 | O=C(Nc1ccc2c(c1)CCCN2C(=O)c1ccccc1)c1ccccc1Br |  | -11.8% | 4.11 µM [rising, single point]
45 | Cc1ccc(S(=O)(=O)n2cc(-c3ccccc3)c3ccccc32)cc1 | 25.9 µM [falling, single point] | -30.9% | 29.1 µM [falling, single point]
46 | COc1ccc(N2C(=O)CC(N3CCC(O)(c4ccc(Br)cc4)CC3)C2=O)cc1 (configuration not stated) | 1.46 µM [falling, partial curve] | 15.9% | 0.00461 µM [falling, full curve, poor fit]
47 | CC(=O)Nc1ccc(NC(=O)COc2ncnc3ccccc23)cc1 | 3.66 µM [falling, partial curve] | -94% | 0.517 µM [falling, full curve]
48 | CC1CCN(c2ccc([N+](=O)[O-])cc2C(=O)NCC2CCCO2)CC1 (configuration not stated) |  | -26.3% | 
49 | CCOC(=O)CSc1nc(C)c(Oc2ccc(Cl)cc2Cl)c(=O)[nH]1 | 3.26 µM [falling, full curve] | -10.7% | 
50 | CCOc1ccc(C(=O)NC2CCN(C(=O)Nc3ccccc3OC)CC2)cc1 | 20.6 µM [falling, partial curve] | -49% | 23.1 µM [falling, partial curve]
51 | COc1ccc2c(C)cc(C)nc2n1 | 1.3 µM [rising, full curve, poor fit] | 13.3% | 
52 | COc1ccc(C)cc1NC(=O)CN(C)C1CCCCC1 | 0.13 µM [rising, full curve, poor fit] |  | 
53 | C=CCN1C(=O)/C(=C\C=C2\N(C)c3ccccc3C2(C)C)SC1=S | 1.3 µM [falling, full curve] | -30.9% | 0.92 µM [falling, full curve]
54 | COCCn1nnnc1C(c1cccc(C#N)c1)N1CCCCCC1 (configuration not stated) |  | 0.352% | 
55 | CCn1c(CNC(=O)c2ccccc2F)nnc1SCC(=O)Nc1nncs1 | 2.31 µM [falling, full curve] | 2.56% | 
56 | NC(=O)c1ccc2nc(NC(=O)c3ccc(N)cc3)sc2c1 | 29.1 µM [rising, single point] | 44.4% | 29.1 µM [rising, single point]
57 | CCOC(=O)c1ccc(NC(=O)CCCN2C(=O)NC3(CCCC3)C2=O)cc1 | 7.31 µM [rising, partial curve] | 43.7% | 3.26 µM [rising, partial curve]
58 | Cc1cnc(NC(=O)CSc2ccc(Cl)cc2)s1 |  | 61.1% | 7.31 µM [rising, partial curve]
